The chains are these.
B1: Copb1 (protein, UniProt P23514 1-953)
chain: MTAAENVCYTLINVPMDSEPPSEISLKNDLEKGDVKSKTEALKKVIIMILNGEKLPGLLMTIIRFVLPLQDHTIKKLLLVFWEIVPKTTPDGRLLHEMILVCDAYRKDLQHPNEFIRGSTLRFLCKLKEAELLEPLMPAIRACLEHRHSYVRRNAVLAIYTIYRNFENLIPDAPELIHDFLVNEKDASCKRNAFMMLIHADQDRALDYLSTCIDQVQTFGDILQLVIVELIYKVCHANPSERARFIRCIYNLLQSSSPAVKYEAAGTLVTLSSAPTAIKAAAQCYIDLIIKESDNNVKLIVLDRLVELKEHPAHERVLQDLVMDILRVLSTPDLEVRKKTLQLALDLVSSRNVEELVIVLKKEVIKTNNVSEHEDTDKYRQLLVRTLHSCSVRFPDMAANVIPVLMEFLSDSNEAAAADVLEFVREAIQRFDNLRMLIVEKMLEVFHAIKSVKIYRGALWILGEYCSTKEDIQSVMTEVRRSLGEIPIVESEIKKEAGELKPEEEITVGPVQKLVTEMGTYATQSALSSSRPTKKEEDRPPLRGFLLDGDFFVAASLATTLTKIALRYVALVQEKKKQNSFVAEAMLLMATILHLGKSSLPKKPITDDDVDRISLCLKVLSECSPLMNDIFNKECRQSLSQMLSAKLEEEKLSQKKESEKRNVTVQPDDPISFMQLTAKNEMNCKEDQFQLSLLAAMGNTQRKEAADPLASKLNKVTQLTGFSDPVYAEAYVHVNQYDIVLDVLVVNQTSDTLQNCTLELATLGDLKLVEKPSPLTLAPHDFANIKANVKVASTENGIIFGNIVYDVSGAASDRNCVVLSDIHIDIMDYIQPATCTDAEFRQMWAEFEWENKVTVNTNVTDLNDYLQHILKSTNMKCLTPEKALSGYCGFMAANLYARSIFGEDALANVSIEKPVHQGPDAAVTGHIRIRAKSQGMALSLGDKINLSQKKTSL
B2: Cct3 (protein, UniProt Q6P502 1-545)
chain: MMGHRPVLVLSQNTKRESGRKVQSGNINAAKTIADIIRTCLGPKSMMKMLLDPMGGIVMTNDGNAILREIQVQHPAAKSMIEISRTQDEEVGDGTTSVIILAGEMLSVAEHFLEQQMHPTVVISAYRMALDDMVSTLKKISTPVDVNNRDMMLNIINSSITTKVISRWSSLACNIALDAVKTVQFEENGRKEIDIKKYARVEKIPGGIIEDSCVLRGVMINKDVTHPRMRRYIKNPRIVLLDSSLEYKKGESQTDIEITREEDFTRILQMEEEYIQQLCEDIIQLKPDVVITEKGISDLAQHYLMRANVTAIRRVRKTDNNRIARACGARIVSRPEELREDDVGTGAGLLEIKKIGDEYFTFITDCKDPKACTILLRGASKEILSEVERNLQDAMQVCRNVLLDPQLVPGGGASEMAVAHALTEKSKAMTGVEQWPYRAVAQALEVIPRTLIQNCGASTIRLLTSLRAKHTQENCETWGVNGETGTLVDMKELGIWEPLAVKLQTYKTAVETAVLLLRIDDIVSGHKKKGDDQNRQTGAPDAGQE
B3: Rbm4 (protein, UniProt M0R3R6 1-365)
chain: MVKLFIGNLPREATEQEIRSLFEQYGKVLECDIIKNYGFVHIEDKTAAEDAIRNLHHYKLHGVNINVEASKNKSKASTKLHVGNISPTCTNQELRAKFEEYGPVIECDIVKDYAFVHMERAEDAVEAIRGLDNTEFQGKRMHVQLSTSRLRTAPGMGDQSGCYRCGKEGHWSKECPIDRSGRVADLTEQYNEQYGAVRTPYTMSYGDSLYYNNTYGALDAYYKRCRAARSYEAVAAAAASAYNNYAEQTLSQLPQVQNTAMASHLTSTSLDPYNRHLLPPSGAAAAAAAAAAAAAACTAASTPYYGRDRSPLRRATGPVPTVGEGYGYGHDSELSQASAAARNSLYDMARYEREQYADRARYSAF
B4: Micu1 (protein, UniProt Q6P6Q9 34-477)
chain: MLVAFLGASAVTASTGLLWKKAHAESPPSVNSKKTDAGDKGKSKDTREVSSHEGSAADTAAEPYPEEKKKKRSGFRDRKVMEYENRIRAYSTPDKIFRYFATLKVINEPGETEVFMTPQDFVRSITPNEKQPEHLGLDQYIIKRFDGKKIAQEREKFADEGSIFYTLGECGLISFSDYIFLTTVLSTPQRNFEIAFKMFDLNGDGEVDMEEFEQVQSIIRSQTSMGMRHRDRPTTGNTLKSGLCSALTTYFFGADLKGKLTIKNFLEFQRKLQHDVLKLEFERHDPVDGRISERQFGGMLLAYSGVQSKKLTAMQRQLKKHFKDGKGLTFQEVENFFTFLKNINDVDTALSFYHMAGASLDKVTMQQVARTVAKVELSDHVCDVVFALFDCDGNGELSNKEFVSIMKQRLMRGLEKPKDMGFTRLMQAMWKCAQETAWDFALPK
B5: Abcd3 (protein, UniProt P16970 1-659)
chain: MAAFSKYLTARNSSLAGAAFLLFCLLHKRRRALGLHGKKSGKPPLQNNEKEGKKERAVVDKVFLSRLSQILKIMVPRTFCKETGYLILIAVMLVSRTYCDVWMIQNGTLIESGIIGRSSKDFKRYLFNFIAAMPLISLVNNFLKYGLNELKLCFRVRLTRYLYEEYLQAFTYYKMGNLDNRIANPDQLLTQDVEKFCNSVVDLYSNLSKPFLDIVLYIFKLTSAIGAQGPASMMAYLLVSGLFLTRLRRPIGKMTIMEQKYEGEYRFVNSRLITNSEEIAFYNGNKREKQTIHSVFRKLVEHLHNFIFFRFSMGFIDSIIAKYIATVVGYLVVSRPFLDLAHPRHLHSTHSELLEDYYQSGRMLLRMSQALGRIVLAGREMTRLAGFTARITELMQVLKDLNHGKYERTMVSQQDKGIEGAQASPLIPGAGEIINADNIIKFDHVPLATPNGDILIQDLSFEVRSGANVLICGPNGCGKSSLFRVLGELWPLFGGHLTKPERGKLFYVPQRPYMTLGTLRDQVIYPDGKEDQKKKGISDQVLKGYLDNVQLGHILEREGGWDSVQDWMDVLSGGEKQRMAMARLFYHKPQFAILDECTSAVSVDVEDYIYSHCRKVGITLFTVSHRKSLWKHHEYYLHMDGRGNYEFKKITEDTVEFGS
B6: Dlat (protein, UniProt P08461 78-632)
chain: SLPPHQKVPLPSLSPTMQAGTIARWEKKEGEKISEGDLIAEVETDKATVGFESLEECYMAKILVPEGTRDVPVGSIICITVEKPQDIEAFKNYTLDSATAATQAAPAPAAAPAAAPAAPSASAPGSSYPVHMQIVLPALSPTMTMGTVQRWEKKVGEKLSEGDLLAEIETDKATIGFEVQEEGYLAKILVPEGTRDVPLGTPLCIIVEKQEDIAAFADYRPTEVTSLKPQAPPPVPPPVAAVPPIPQPLAPTPSAAPAGPKGRVFVSPLAKKLAAEKGIDLTQVKGTGPEGRIIKKDIDSFVPTKAAPAAAAAAPPGPRVAPTPAGVFIDIPISNIRRVIAQRLMQSKQTIPHYYLSVDVNMGEVLLVRKELNKMLEGKGKISVNDFIIKASALACLKVPEANSSWMDTVIRQNHVVDVSVAVSTPAGLITPIVFNAHIKGLETIASDVVSLASKAREGKLQPHEFQGGTFTISNLGMFGIKNFSAIINPPQACILAIGASEDKLIPADNEKGFDVASVMSVTLSCDHRVVDGAVGAQWLAEFKKYLEKPVTMLL
B7: Dpysl5 (protein, UniProt Q9JHU0 1-564)
chain: MLANSASVRILIKGGKVVNDDCTHEADVYIENGIIQQVGRELMIPGGAKVIDATGKLVIPGGIDTSTHFHQTFMNATCVDDFYHGTKAALVGGTTMIIGHVLPDKETSLVEAYEKCRALADPKVCCDYALHVGITWWAPKVKAEMETLVREKGVNSFQMFMTYKDLYMLRDSELYQVFHACRDFGAIPRVHAENGELVAEGAKEALDLGITGPEGIEISHPEELEAEATHRVITIANRTHCPIYLVNVSSISAGDVIAAAKMQGKVVLAETTNAHATLTGLHYYHQDWSHAAAYVTVPPLRLDTNTSTYLMSLLANDTLNIVASDHRPFTTKQKAMGKEDFTKIPHGVSGVQDRMSVVWERGVVGGKMDENRFVAVTSSNAAKILNLYPRKGRIIPGADADVVVWDPEATKTISASTQVQGGDFNLYENMRCHGVPLVTISRGRVVYENGVFMCAEGTGKFCPLRSFPDIVYKKLVQREKTLKVRGVDRTPYLGDVAVVVNPGKKEMGTPLADTPTRPVTRHGGMRDLHESSFSLSGSQIDDHVPKRASARILAPPGGRSSGIW
B8: Farsa (protein, UniProt Q505J8 1-508)
chain: MADNPVLEQLLRRLEVADGGLDSAELATQLGVEHQAVVGAVKSLQALGEVIEAELRSTKCWELTTEGEEIAREGSHEARVFRSIPLEGLVQSELMQLPSGKVGFSKAMSNKWIRVDKSAADGPRVFRVVDSIEDEVQRRLQQVQAGQAEKLAEKERNELRKRKLLTEVILKTYWVSKGKGFSTSVSKQEAELSPEMISSGSWRDRPFKPYNFSARGVLPDSGHLHPLLKVRSQFRQIFLEMGFTEMPTDNFIESSFWNFDALFQPQQHPARDQHDTFFLRDPAEALQLPMDYVQRVKRTHSQGGYGSQGYKYTWKLEEARKNLLRTHTTAASARALYRLAQKKPFTPAKYFSIDRVFRNETLDATHLAEFHQIEGVIADHGLTLGHLMGVLREFFTKLGITQLRFKPAYNPYTEPSMEVFSYHQGLKKWVEVGNSGVFRPEMLLPMGLPENVSVIAWGLSLERPTMIKYGINNIRELVGHKVNLQMVYDSPVCRLDIEPRSSKTQEAA
B9: Dnajc10 (protein, UniProt Q498R3 33-793)
chain: DQNFYSLLGVSKTASSREIRQAFKKLALKLHPDKNPNNPNAHGDFLKINRAYEVLKDEDLRKKYDKYGEKGLEDNQGGQYESWSYYRYDFGIYDDDPEIITLERREFDAAVNSGELWFVNFYSPGCSHCHDLAPTWREFAKEVDGLLRIGAVNCGDDRMLCRMKGVNSYPSLFIFRSGMAAVKYNGDRSKESLVSFAMQHVRTTVTELSTGNFVNAIETAFAAGIGWLITFCFKGEDCLTPQTRLRLSGMLDGLVNVGWVDCDTQDSLCKSLDATASTTAYFPPGATLNNKEKSSVLFLNSLDAKEIYMEIIHNLPDFELLSANKLEDRLAHHRWLVFFHFGKNENANDPELKKLKTLLKNEHIQVGRFDCSSAPGICSDLYVFQSCLAVFKGQGTKEYEIHHGKKILYDILAFAKESVNSHVTTLGPQNFPASDKEPWLVDFFAPWCPPCRALLPELRKASTLLYGQLKVGTLDCTIHEGLCNMYNIQAYPTTVVFNQSSVHEYEGHHSAEQILEFIEDLRNPSVVSLTPTTFNELVKQRKHDEVWMVDFYSPWCHPCQVLMPEWKRMARTLTGLINVGSVDCQQYHSFCTQENVQRYPEIRFYPQKSSRAYQYHSYNGWNRDAYSLRSWGLGFLPQASIDLTPQTFNEKVLQGKTHWVIDFYAPWCGPCQNFAPEFELLARMIKGKVKAGKVDCQAYPQTCQKAGIRAYPSVKLYLYERAKKSIWEEQINSRDAKTIAALIYGKLETFQSQVKRNKDEL

The chains behind the UniProt entries cited, without tags or fusion partners.
UniProt Q9NZV8: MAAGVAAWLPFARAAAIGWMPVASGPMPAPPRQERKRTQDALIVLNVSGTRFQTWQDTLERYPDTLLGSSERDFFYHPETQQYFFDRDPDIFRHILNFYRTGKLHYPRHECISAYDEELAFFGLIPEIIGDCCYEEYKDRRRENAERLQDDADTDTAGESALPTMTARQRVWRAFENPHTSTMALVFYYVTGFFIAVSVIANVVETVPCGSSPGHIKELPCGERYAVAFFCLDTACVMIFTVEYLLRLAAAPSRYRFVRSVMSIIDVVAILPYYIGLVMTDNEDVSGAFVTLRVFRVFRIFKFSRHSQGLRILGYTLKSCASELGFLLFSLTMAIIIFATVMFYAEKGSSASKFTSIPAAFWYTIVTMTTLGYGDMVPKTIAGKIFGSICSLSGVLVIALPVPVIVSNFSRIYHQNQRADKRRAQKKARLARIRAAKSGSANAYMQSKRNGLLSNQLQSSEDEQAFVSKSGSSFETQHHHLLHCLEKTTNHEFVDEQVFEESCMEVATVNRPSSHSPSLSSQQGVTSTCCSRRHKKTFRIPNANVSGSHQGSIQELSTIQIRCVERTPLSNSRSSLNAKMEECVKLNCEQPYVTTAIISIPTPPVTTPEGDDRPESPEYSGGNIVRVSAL

No constants are given. Whether binding was seen depends on the method and setting. Binding seen in cells or lysates may run through a third protein. A yes stands for co-enrichment or nearness to the bait. Other partners may have been found.

For the assay, the target named is TAP-Kv4.2 (human) (UniProt Q9NZV8). In words: affinity purification with mass spectrometry; TAP-Kv4.2 expressed by lentivirus in rat hippocampal neurons, harvested at DIV14; weak lysis buffer of the kit (0.1% NP-40); streptavidin resin, then calmodulin resin; gel cut into high and low molecular weight fragments; no MS of the control sample.
With B1, the binding entry is reported as “binds”. Turning to B2, the binding entry is reported as “binds”. Take B3: the binding entry is “binds”. For B4, the binding entry is listed as “binds”. Consider B5, for which the binding result is reported as “binds”.

Turning to B6, the binding result is reported as “binds”. For B7, the binding entry was “binds”.

As to B8, the binding result was “binds”. The same measure for B9: “binds”.

Values taken from paper PMC9788671.
